# Laboratory results taken from PMC4287497, “Phosphorylation of Elp1 by Hrr25 Is Required for Elongator-Dependent tRNA Modification in Yeast” (PLoS Genetics, 2015).
# No constants are given. Whether binding was seen depends on the method and setting. Binding seen in cells or lysates may run through a third protein. Some binding calls cover weakened binding; strength is not graded here.
# T1: Elp1-S1209A-6HA (S. cerevisiae) (UniProt Q06706)
# T1 sequence: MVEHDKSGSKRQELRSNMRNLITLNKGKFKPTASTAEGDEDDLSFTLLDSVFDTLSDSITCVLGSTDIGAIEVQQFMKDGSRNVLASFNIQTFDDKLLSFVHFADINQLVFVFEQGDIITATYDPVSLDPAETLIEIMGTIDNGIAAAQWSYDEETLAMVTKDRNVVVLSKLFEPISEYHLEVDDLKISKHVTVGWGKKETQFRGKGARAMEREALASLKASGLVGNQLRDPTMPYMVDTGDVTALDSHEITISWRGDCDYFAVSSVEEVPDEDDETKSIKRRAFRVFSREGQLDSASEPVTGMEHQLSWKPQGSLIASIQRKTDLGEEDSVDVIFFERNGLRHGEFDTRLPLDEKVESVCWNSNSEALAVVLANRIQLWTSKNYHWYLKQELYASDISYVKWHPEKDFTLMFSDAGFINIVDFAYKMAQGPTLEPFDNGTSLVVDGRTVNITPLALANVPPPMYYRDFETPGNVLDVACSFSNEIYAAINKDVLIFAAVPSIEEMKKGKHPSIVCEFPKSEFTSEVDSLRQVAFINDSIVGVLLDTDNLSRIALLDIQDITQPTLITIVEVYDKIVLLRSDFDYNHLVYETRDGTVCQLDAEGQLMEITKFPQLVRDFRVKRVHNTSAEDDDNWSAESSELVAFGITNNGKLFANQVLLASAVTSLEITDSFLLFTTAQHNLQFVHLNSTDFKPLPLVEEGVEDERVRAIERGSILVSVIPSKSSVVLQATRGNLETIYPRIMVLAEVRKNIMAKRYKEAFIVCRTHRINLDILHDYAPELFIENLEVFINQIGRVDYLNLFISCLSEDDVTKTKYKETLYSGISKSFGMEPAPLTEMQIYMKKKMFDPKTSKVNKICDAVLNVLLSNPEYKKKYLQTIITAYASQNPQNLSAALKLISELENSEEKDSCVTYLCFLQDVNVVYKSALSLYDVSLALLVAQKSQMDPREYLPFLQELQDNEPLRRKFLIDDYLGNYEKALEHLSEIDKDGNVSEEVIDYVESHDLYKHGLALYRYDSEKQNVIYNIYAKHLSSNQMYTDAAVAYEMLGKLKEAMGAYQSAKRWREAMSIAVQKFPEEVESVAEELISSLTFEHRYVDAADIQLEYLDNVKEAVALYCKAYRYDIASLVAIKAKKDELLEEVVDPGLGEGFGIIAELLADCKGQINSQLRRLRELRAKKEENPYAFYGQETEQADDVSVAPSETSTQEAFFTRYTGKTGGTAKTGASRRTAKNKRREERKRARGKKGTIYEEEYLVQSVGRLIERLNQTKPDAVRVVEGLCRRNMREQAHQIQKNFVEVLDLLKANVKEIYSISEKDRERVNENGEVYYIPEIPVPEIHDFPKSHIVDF
# T2: Elp1-S1198A S1202A-6HA (S. cerevisiae) (UniProt Q06706)
# T2 sequence: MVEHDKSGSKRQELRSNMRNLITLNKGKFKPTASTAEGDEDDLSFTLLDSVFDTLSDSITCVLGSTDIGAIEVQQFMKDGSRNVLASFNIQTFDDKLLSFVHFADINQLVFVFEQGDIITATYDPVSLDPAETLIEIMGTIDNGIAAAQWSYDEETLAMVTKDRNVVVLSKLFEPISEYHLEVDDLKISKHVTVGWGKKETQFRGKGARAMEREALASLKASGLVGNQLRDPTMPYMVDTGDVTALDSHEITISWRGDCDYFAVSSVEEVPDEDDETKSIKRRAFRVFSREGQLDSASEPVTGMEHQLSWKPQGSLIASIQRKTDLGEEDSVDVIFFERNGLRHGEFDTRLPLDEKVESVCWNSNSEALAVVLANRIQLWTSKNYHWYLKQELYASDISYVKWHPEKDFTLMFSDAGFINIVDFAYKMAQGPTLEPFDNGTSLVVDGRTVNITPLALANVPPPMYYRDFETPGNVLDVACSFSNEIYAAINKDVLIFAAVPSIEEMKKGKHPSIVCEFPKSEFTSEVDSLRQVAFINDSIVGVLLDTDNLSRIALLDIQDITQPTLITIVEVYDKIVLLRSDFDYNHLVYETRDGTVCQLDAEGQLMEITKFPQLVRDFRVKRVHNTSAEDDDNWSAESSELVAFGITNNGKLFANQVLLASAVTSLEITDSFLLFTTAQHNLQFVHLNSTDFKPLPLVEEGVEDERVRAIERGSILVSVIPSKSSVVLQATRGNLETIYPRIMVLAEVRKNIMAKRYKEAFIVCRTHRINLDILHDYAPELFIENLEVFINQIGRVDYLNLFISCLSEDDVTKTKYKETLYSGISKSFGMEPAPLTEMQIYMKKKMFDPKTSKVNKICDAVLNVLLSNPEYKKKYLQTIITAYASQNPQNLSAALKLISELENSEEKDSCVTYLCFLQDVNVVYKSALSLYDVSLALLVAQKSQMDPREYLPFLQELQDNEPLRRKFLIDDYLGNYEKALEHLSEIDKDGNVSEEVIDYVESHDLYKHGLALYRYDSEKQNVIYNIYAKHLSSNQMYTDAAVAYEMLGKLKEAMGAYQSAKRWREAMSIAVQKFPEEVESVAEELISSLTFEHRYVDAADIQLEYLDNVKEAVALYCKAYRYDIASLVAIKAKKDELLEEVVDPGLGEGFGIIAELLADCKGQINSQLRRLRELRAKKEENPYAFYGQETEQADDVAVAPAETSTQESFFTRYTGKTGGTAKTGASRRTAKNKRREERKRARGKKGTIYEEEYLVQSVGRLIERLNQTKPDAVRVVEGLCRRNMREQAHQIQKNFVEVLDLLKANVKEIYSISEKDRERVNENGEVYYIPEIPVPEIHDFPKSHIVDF
# Columns and labels:
# [1] = target: T1, Elp1-S1209A-6HA (S. cerevisiae); experiment: co-IP; Elp2-myc immunoprecipitated from extracts of elp1Δ yeast strains carrying plasmid-borne ELP1-6HA alleles (antibody coupled to Dynabeads, B60 buffer); Western blot with anti-myc, anti-HA and anti-Hrr25
# [2] = target: T2, Elp1-S1198A S1202A-6HA (S. cerevisiae); experiment: as above
binding [1],binding [2],Binder
binds,binds,"Kti12-HA6 (natural protein, S. cerevisiae, UniProt P34253 1-313, looked up, Kti12, accessory protein of Elongator, S. cerevisiae; also called HA-tagged Kti12; source: S. cerevisiae KTI12-HA6 strains, in cell extract) MPLVLFTGYPCSGKTTLAKHLVQLLQSKIDATPSLSKYSITYHSDESLGIKHSDYITSQDERKLRSEIISAVKRDLSKNKIVIVDSLNYIKGFRYQLHCEVKNLSTTFCVIQTLCPPETIFEWNKTSNPNPWEPELLNQLIQRYEEPNSSNRWDSPLFAILTPQDNITDYIDDICKVVFQTSKSAKNSGHNDPLSKGLQKPNSATVLKPASQSNFIQVLDIETSKIIKTIMNHIKSLTSIGGVSNGTRVIVSEGITDINDDGCFFVDLPIGNVVTLAQLQRLKRQFINFNKLRDIDQDRIGPLFADYLNKNLN"
binds,binds,"Hrr25 protein kinase (casein kinase I), endogenous (enzyme, UniProt P29295 1-494) MDLRVGRKFRIGRKIGSGSFGDIYHGTNLISGEEVAIKLESIRSRHPQLDYESRVYRYLSGGVGIPFIRWFGREGEYNAMVIDLLGPSLEDLFNYCHRRFSFKTVIMLALQMFCRIQYIHGRSFIHRDIKPDNFLMGVGRRGSTVHVIDFGLSKKYRDFNTHRHIPYRENKSLTGTARYASVNTHLGIEQSRRDDLESLGYVLIYFCKGSLPWQGLKATTKKQKYDRIMEKKLNVSVETLCSGLPLEFQEYMAYCKNLKFDEKPDYLFLARLFKDLSIKLEYHNDHLFDWTMLRYTKAMVEKQRDLLIEKGDLNANSNAASASNSTDNKSETFNKIKLLAMKKFPTHFHYYKNEDKHNPSPEEIKQQTILNNNAASSLPEELLNALDKGMENLRQQQPQQQVQSSQPQPQPQQLQQQPNGQRPNYYPEPLLQQQQRDSQEQQQQVPMATTRATQYPPQINSNNFNTNQASVPPQMRSNPQQPPQDKPAGQSIWL"
